About 3,700 (1.2%) of roughly 300,000 compounds were called active. This list was built around the results that the source calls inconclusive (neither active nor inactive); the mix of calls is not that of the screen. The call rests on the fitted dose curve; tested in HEK293 cells. Potencies of inconclusive entries are doubtful fits and often do not repeat.
Experiment: qHTS for Inhibitors of binding or entry into cells for Lassa Virus; further: nearly all actives have a fitted effect of over 50% in size
Conditions: Lassa virus pseudotype entry inhibition, cell reporter; activity change, negative = inhibition: at 37.9 µM (top of the series) unless noted
In the case of `O=C(Cc1ccc(F)cc1)NCCc1csc(-c2ccc(C(F)(F)F)cc2)n1`, the “activity change, negative = inhibition” value is reported as inactive: 1.64% [at 46.1 µM].
For `CC(=O)NN1C(=O)c2ccccc2NC1c1ccccn1` (configuration not stated), the Potency was inconclusive: 22.4 µM [activator, single point].
With `Cc1ccc(CNC(=O)c2ccc(Br)o2)cc1` the “activity change, negative = inhibition” value was inactive: 0.139%.
With `CCOC(=O)c1cnc(NCc2ccc(Cl)cc2)c2ccccc12` the Potency was inconclusive: 10 µM [inhibitor, partial curve].
In the case of `O=C(N/C=N/O)C1=NOC(CNc2ncc(C(F)(F)F)cc2Cl)C1` (configuration not stated), the “activity change, negative = inhibition” value is reported as inactive: 4.4%.
With `COCCN(C(=O)CCC(=O)Nc1ccccn1)C(C(=O)NC(C)(C)C)c1ccc(OC)cc1` (configuration not stated) the Potency was inconclusive: 5.62 µM [inhibitor, single point].
In the case of `S=C(NNC(=S)Nc1ccccc1)Nc1ccccc1`, the Potency is reported as inconclusive: 2.51 µM [activator, single point].
In the case of `Cc1nn(-c2ccccc2)c2sc(C(=O)N3CCCCC3)cc12`, the Potency is reported as inconclusive: 35.5 µM [inhibitor, single point].
In the case of `CCOc1ccccc1NC(=O)N1CCC(c2nc3ccc(C)cc3[nH]2)CC1`, the “activity change, negative = inhibition” value is reported as inactive: -16.8% [at 14.3 µM].
In the case of `CC1CCN(CC(=O)N2c3ccccc3CCc3ccccc32)CC1`, the “activity change, negative = inhibition” value is reported as inactive: -10.1%.
For `CCN1CCN(C(c2ccccc2)c2nnnn2CCc2ccc(OC)c(OC)c2)CC1` (configuration not stated), the Potency was inconclusive: 0.158 µM [activator, full curve, poor fit].
In the case of `CCC(=O)N1c2ccc(S(=O)(=O)N3CCN(c4ccccc4Cl)CC3)cc2CC1C` (configuration not stated), the Potency is reported as inconclusive: 35.5 µM [inhibitor, single point].
In the case of `O=c1[nH]c2ccccc2nc1/C=C/c1ccc(O)cc1`, the Potency is reported as inconclusive: 31.6 µM [inhibitor, single point].
For `Cc1ccc(NC(CNS(=O)(=O)c2ccc(Cl)cc2)c2ccccc2)cc1` (configuration not stated), the Potency was inconclusive: 22.4 µM [inhibitor, single point].
With `Cc1ccc(C)c(NC(=O)CN(C)C(=O)COc2cccc3c2OC(C)(C)C3)c1` the “activity change, negative = inhibition” value was inactive: -5.79%.
In the case of `CC1=C(C(=O)Nc2ccccc2F)C(c2ccsc2)C2=C(CC(C)(C)CC2=O)N1` (configuration not stated), the Potency is reported as inconclusive: 8.2 µM [inhibitor, partial curve].
In the case of `N#Cc1c(NC(=O)CSc2ncnc3sccc23)oc(-c2ccco2)c1-c1ccco1`, the “activity change, negative = inhibition” value is reported as inactive: -3.1%.
For `CCN(CC)S(=O)(=O)c1ccc(C(=O)NCC(=O)N/N=C/c2ccccc2OC)cc1`, the “activity change, negative = inhibition” value was inactive: -6.63%.
For `CC(C)c1ccccc1NC(=O)COC(=O)c1c2c(nc3ccccc13)CCN(Cc1ccccc1)C2`, the Potency was inconclusive: 29.1 µM [inhibitor, single point].
For `COc1cccc(-c2cc(C(=O)Nc3cnn(Cc4ccc(F)cc4)c3)no2)c1`, the Potency was inconclusive: 29.1 µM [inhibitor, single point].
With `CC(=O)c1cccc(NS(=O)(=O)c2ccc(NC(=O)N3CCCCC3)cc2)c1` the Potency was inconclusive: 17.8 µM [inhibitor, partial curve, poor fit].
In the case of `COc1ccccc1N(CC(=O)NCc1ccco1)S(C)(=O)=O`, the “activity change, negative = inhibition” value is reported as inactive: 1.45%.
With `Cc1cc(C)nc(Nc2n[nH]c(-c3ccc(C(C)(C)C)cc3)n2)n1` the “activity change, negative = inhibition” value was inactive: -0.661%.
With `O=C(NC1CCCCC1)/C(=C/c1ccc(Cl)cc1)NC(=O)c1ccccc1` the Potency was inconclusive: 3.98 µM [inhibitor, partial curve, poor fit].
For `CCC(=O)OCC(=O)Nc1cc([N+](=O)[O-])ccc1Cl`, the Potency was inconclusive: 35.5 µM [inhibitor, single point].
In the case of `Cc1ccc(/C=C/C(=O)Nc2ccc([N+](=O)[O-])cc2)o1`, the “activity change, negative = inhibition” value is reported as inactive: -8.33%.
For `Cc1ccccc1/C=N/NC(=O)Cn1cnc([N+](=O)[O-])n1`, the Potency was inconclusive: 32.6 µM [activator, partial curve, poor fit].
For `CC1CCCCN1C(=O)CSc1nc2cc3c(cc2c(=O)n1Cc1ccc2c(c1)OCO2)OCO3` (configuration not stated), the Potency was inconclusive: 16.4 µM [inhibitor, single point].
With `CCCCCCCC(=O)Nc1ccc(C(=O)N/N=C/c2cccc([N+](=O)[O-])c2)cc1` the Potency was inconclusive: 2.82 µM [inhibitor, single point].
With `O=C(Nc1ccc([N+](=O)[O-])cc1)C1COc2ccccc2O1` (configuration not stated) the Potency was inconclusive: 35.5 µM [inhibitor, single point].
With `C/C(=N\NC(=O)c1cccc(Br)c1)c1ccccn1` the Potency was inconclusive: 3.98 µM [inhibitor, full curve, poor fit].
With `O=C(CN1C2=NCCCN2c2ccccc21)c1ccc2c(c1)OCO2` the Potency was inconclusive: 32.6 µM [inhibitor, single point].
For `CCOc1ccc(S(=O)(=O)N2CCN(Cc3ccc4c(c3)OCO4)CC2)cc1OCC`, the Potency was inconclusive: 0.562 µM [inhibitor, full curve, poor fit].
For `COc1ccc(C(=O)CC(=O)C(=O)Nc2ccc([N+](=O)[O-])cc2C)cc1`, the Potency was inconclusive: 5.62 µM [inhibitor, single point].
With `COc1ccc(S(=O)(=O)N2CCCN(CC(=O)Nc3ccccc3F)CC2)cc1` the Potency was inconclusive: 4.47 µM [inhibitor, full curve].
In the case of `Cc1cccn2c(=O)c3cc(C(=O)NCC4CCCO4)c(=N)n(C4CCCCC4)c3nc12` (configuration not stated), the Potency is reported as inconclusive: 17.8 µM [inhibitor, partial curve, poor fit].
With `COc1ccc(NC(=O)c2ccc(S(=O)(=O)N3CCOCC3)cc2)c(OC)c1` the “activity change, negative = inhibition” value was inactive: -0.323%.
With `O=C(Nc1ccon1)c1sc2ccccc2c1Cl` the Potency was inconclusive: 6.51 µM [activator, partial curve, poor fit].
With `c1ccc(-c2ccc(-c3ccccc3)[nH]2)cc1` the Potency was inconclusive: 7.08 µM [activator, partial curve, poor fit].
With `O=C(/C=C/c1ccccc1)Nc1nc(-c2ccncc2)cs1` the Potency was inconclusive: 11.2 µM [inhibitor, partial curve, poor fit].
With `CCOc1cc(C(=O)Nc2ccc(F)cc2)cc(Br)c1OC` the Potency was inconclusive: 0.891 µM [inhibitor, full curve, poor fit].
In the case of `O=C(CCCn1c(=O)c2cccn2c2cccnc21)Nc1ccccc1Br`, the “activity change, negative = inhibition” value is reported as inactive: 15.7% [at 46.1 µM].
With `COc1cccc(CN(C)C(=O)COc2ccc(C(=O)c3ccc(Cl)cc3)cc2)c1OC` the Potency was inconclusive: 22.4 µM [inhibitor, partial curve, poor fit].
With `OC12ONC(c3ccccn3)C1N1CCC2CC1` (configuration not stated) the Potency was inconclusive: 20 µM [inhibitor, single point].
With `CC1CN(Cc2ccco2)C(=S)NC1=O` (configuration not stated) the Potency was inconclusive: 12.6 µM [inhibitor, partial curve, poor fit].
For `CCOC(=O)c1ccc(S(=O)(=O)N2CCN(C(=O)c3cc(=O)c4ccccc4o3)CC2)cc1`, the “activity change, negative = inhibition” value was inactive: -23.1%.
With `Cn1c(=O)c2cc(S(=O)(=O)Nc3ccc4c(c3)OCO4)ccc2n(C)c1=O` the “activity change, negative = inhibition” value was inactive: -21.6%.
For `CC(=O)Nc1ccc(NC(=O)c2cccc(S(=O)(=O)N3CCCCCC3)c2)cc1`, the “activity change, negative = inhibition” value was inactive: 0.153%.
With `CCOc1ccc(NC(=O)COC(=O)C2C3CC4OC(=O)C2C4C3)cc1` (configuration not stated) the “activity change, negative = inhibition” value was inactive: 10.8% [at 46.1 µM].
With `CCN1CCN(/C=N/c2nc(C)cs2)CC1` the Potency was inconclusive: 18.3 µM [activator, single point].
For `CCN(CC)CCn1c(NCc2cc(OC)ccc2OC)nc2ccccc21`, the “activity change, negative = inhibition” value was inactive: 13.6%.
In the case of `Cc1ccc(C(=O)Nc2ccc(F)cc2)cc1S(=O)(=O)N1CCOCC1`, the Potency is reported as inconclusive: 22.4 µM [inhibitor, single point].
With `COc1ccc2oc(=O)c(C(=O)N3CCCc4ccccc43)cc2c1` the Potency was inconclusive: 32.6 µM [inhibitor, partial curve, poor fit].
In the case of `Cc1ccccc1C(=O)Nc1ccc(C(=O)OCc2cc(=O)n3c4c(sc3n2)CCCC4)cc1`, the Potency is reported as inconclusive: 2.82 µM [inhibitor, partial curve, poor fit].
With `COc1ccc(CSc2nnnn2-c2ccccc2)cc1` the Potency was inconclusive: 8.91 µM [inhibitor, partial curve, poor fit].
In the case of `Nc1ccccc1SCC(=O)Nc1ccc2c(c1)OCCO2`, the Potency is reported as inconclusive: 11.2 µM [inhibitor, single point].
With `COc1ccc(CNc2cc(C)ccn2)c(O)c1` the Potency was inconclusive: 4.47 µM [activator, partial curve].
With `NNC(=O)c1[nH]c2ccc(Br)cc2c1-c1ccccc1` the Potency was inconclusive: 14.1 µM [inhibitor, single point].
For `Cc1cc(C(=O)COC(=O)c2ccc3c(c2)OCO3)c(C)n1Cc1cccs1`, the Potency was inconclusive: 29.1 µM [inhibitor, single point].
In the case of `Cc1cc(C(=O)COC(=O)CNC(=O)c2ccc(F)cc2)c(C)n1Cc1ccco1`, the Potency is reported as inconclusive: 29.1 µM [activator, single point].
For `COc1ccc(-c2[nH]ncc2/C=C(/C#N)C(=O)NC2CCCCCC2)cc1`, the Potency was inconclusive: 4.47 µM [inhibitor, full curve, poor fit].
For `Cc1ccc(OCC(=O)N(C)CC(=O)Nc2ccc(F)c(F)c2F)cc1`, the Potency was inconclusive: 0.794 µM [activator, single point].
With `Cc1cccc(OCCCCn2c(C3CC(=O)N(c4ccc(C)cc4C)C3)nc3ccccc32)c1` (configuration not stated) the Potency was inconclusive: 3.16 µM [inhibitor, partial curve, poor fit].
For `O=C(O)c1ccc(NC(=S)Nc2ccc(S(=O)(=O)Nc3ccccn3)cc2)cc1`, the Potency was inconclusive: 20 µM [activator, single point].
For `COc1ccc2nc(N/C(N)=N/C(=S)Nc3c(C)cccc3C)nc(C)c2c1`, the Potency was inconclusive: 32.6 µM [inhibitor, single point].
With `Cc1ccc(S(=O)(=O)N2CCCc3cc(NC(=O)c4c(F)cccc4F)ccc32)cc1` the “activity change, negative = inhibition” value was inactive: -30% [at 46.1 µM].
With `Cc1onc(-c2ccccc2)c1CNC(=O)Nc1ccc(C(F)(F)F)cc1` the Potency was inconclusive: 15.8 µM [inhibitor, partial curve, poor fit].
On the % scale 0 is the no-effect control and ±100 the full control effect; potency means the concentration at half of the fitted maximal effect.
